Results taken from article PMC8882007, “Syndapin-2 mediated transcytosis of amyloid-β across the blood–brain barrier” (Brain Communications, 2022).
These are yes or no findings as the source states them, for the method shown. In cells and extracts the contact can be indirect. Some entries that bind do so weakly or less than the wild type.

By UniProt entry, the sequences of proteins in these tests, tags left out. Residues count along the entry.
UniProt Q68FD5: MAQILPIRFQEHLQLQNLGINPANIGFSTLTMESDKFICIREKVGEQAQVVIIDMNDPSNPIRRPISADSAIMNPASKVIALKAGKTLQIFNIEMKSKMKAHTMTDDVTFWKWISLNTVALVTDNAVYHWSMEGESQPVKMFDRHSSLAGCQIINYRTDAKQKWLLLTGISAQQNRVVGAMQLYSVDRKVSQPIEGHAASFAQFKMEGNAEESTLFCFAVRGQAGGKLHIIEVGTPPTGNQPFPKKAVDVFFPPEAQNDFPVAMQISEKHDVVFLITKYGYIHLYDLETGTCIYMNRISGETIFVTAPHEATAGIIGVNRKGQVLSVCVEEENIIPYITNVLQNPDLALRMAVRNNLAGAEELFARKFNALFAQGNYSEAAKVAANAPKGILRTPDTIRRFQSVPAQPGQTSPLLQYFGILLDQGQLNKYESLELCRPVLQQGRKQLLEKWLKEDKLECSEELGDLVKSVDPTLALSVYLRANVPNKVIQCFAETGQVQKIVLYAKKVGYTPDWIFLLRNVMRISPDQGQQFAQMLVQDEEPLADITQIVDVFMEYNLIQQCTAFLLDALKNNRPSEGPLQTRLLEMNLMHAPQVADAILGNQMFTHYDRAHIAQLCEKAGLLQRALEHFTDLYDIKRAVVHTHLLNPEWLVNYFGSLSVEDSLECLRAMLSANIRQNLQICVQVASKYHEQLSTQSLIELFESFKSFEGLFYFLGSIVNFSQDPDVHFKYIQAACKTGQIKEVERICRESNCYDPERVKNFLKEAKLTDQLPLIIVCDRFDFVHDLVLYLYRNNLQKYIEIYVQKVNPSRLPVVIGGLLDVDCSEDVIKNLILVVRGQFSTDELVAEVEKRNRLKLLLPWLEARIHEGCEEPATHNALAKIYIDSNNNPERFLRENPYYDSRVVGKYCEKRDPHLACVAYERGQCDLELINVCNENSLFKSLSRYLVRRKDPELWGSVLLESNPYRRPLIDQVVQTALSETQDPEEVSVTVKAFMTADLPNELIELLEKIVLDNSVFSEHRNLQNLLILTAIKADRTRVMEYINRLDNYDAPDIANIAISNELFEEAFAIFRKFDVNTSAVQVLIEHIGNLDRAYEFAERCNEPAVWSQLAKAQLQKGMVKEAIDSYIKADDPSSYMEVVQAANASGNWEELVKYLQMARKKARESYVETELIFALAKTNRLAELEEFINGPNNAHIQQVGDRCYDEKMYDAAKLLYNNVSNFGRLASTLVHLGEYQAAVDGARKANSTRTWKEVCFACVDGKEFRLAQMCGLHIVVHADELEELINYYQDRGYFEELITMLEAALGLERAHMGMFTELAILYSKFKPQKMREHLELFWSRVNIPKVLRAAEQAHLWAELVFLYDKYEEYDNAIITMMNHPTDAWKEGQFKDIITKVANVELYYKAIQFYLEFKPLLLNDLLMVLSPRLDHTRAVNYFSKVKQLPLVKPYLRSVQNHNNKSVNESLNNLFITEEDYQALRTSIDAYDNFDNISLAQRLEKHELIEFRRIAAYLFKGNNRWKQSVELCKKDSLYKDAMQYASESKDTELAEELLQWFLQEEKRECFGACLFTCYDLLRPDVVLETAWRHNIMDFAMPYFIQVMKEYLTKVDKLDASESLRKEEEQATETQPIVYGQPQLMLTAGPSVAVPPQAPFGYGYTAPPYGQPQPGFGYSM
UniProt Q62151, residues 23-402: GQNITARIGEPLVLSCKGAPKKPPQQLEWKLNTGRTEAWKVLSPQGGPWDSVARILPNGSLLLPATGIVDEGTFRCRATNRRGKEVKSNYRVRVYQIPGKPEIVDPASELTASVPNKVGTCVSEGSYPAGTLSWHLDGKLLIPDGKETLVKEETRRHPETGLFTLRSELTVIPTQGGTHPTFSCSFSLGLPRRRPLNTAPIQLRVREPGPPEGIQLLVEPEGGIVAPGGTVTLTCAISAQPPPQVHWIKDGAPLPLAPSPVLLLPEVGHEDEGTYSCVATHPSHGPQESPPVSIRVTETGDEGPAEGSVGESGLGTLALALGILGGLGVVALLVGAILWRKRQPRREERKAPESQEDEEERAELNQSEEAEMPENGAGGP
UniProt Q9WVE8: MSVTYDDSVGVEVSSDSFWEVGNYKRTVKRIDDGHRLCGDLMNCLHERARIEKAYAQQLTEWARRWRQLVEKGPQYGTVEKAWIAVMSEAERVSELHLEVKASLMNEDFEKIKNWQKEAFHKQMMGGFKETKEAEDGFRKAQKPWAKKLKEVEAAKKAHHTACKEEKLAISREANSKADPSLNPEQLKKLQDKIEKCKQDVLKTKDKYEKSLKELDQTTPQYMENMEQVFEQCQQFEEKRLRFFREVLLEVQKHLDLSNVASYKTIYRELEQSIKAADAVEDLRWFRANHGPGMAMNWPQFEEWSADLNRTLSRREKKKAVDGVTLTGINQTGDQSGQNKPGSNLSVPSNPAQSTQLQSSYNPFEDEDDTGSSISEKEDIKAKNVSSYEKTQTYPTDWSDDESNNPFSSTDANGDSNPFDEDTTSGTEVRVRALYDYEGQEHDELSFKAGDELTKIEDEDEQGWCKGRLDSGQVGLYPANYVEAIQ

Legend:
Assay in all cases: proximity ligation; Duolink PLA between two endogenous proteins in polarized bEnd3 monolayers, fixed in 4% PFA and permeabilized with 0.1% Triton X-100; two primary antibodies overnight at 4°C; PLA signal normalized by the number of nuclei; also in shRNA control (scramble) and syndapin-2 knockdown cells, and after FAM-Aβ (1–40) or Aβ monomers, oligomers or fibrils for 15 min
[1] = target: T1, EEA-1 (mouse (endogenous in bEnd3)) (UniProt Q8BL66)
T1 sequence: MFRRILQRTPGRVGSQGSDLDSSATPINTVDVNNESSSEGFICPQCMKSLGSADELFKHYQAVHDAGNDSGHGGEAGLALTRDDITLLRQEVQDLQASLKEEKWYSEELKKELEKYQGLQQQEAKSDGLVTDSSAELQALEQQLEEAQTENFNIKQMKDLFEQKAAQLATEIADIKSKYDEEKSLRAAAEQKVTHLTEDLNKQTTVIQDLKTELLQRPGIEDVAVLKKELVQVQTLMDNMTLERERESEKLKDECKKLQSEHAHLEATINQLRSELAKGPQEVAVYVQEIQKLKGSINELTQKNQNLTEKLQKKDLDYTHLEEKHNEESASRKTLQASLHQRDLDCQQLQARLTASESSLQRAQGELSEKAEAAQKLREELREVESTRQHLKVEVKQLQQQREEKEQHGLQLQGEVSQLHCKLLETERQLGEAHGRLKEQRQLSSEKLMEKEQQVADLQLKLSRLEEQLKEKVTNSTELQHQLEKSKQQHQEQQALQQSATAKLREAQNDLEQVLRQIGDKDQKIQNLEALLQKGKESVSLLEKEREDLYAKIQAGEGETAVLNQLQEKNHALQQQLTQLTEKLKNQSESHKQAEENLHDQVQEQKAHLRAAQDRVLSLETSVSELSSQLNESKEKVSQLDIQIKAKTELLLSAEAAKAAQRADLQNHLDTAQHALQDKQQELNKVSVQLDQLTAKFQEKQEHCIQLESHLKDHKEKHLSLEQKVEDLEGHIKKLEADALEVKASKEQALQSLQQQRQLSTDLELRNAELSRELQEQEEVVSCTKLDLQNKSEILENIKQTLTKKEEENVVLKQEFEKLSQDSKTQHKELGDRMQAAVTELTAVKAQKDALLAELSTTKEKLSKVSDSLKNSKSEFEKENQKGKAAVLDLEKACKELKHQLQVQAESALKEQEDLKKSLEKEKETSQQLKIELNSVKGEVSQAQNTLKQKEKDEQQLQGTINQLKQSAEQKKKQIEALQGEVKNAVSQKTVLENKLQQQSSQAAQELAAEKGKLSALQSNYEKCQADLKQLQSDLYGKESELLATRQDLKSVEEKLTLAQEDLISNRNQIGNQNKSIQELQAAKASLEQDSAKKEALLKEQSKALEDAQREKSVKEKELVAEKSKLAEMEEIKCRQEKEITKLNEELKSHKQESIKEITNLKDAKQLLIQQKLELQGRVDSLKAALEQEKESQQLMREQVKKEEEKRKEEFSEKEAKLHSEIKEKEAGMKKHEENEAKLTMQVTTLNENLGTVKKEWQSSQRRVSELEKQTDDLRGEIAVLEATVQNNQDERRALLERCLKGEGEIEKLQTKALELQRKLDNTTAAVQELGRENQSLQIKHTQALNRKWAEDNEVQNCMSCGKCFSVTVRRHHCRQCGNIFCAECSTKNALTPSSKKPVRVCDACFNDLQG

[2] = target: heavy chain of clathrin (mouse (endogenous in bEnd3)) (UniProt Q68FD5)
[3] = target: T2, phosphatidylinositol-binding clathrin assembly (PICALM) (mouse (endogenous in bEnd3)) (UniProt Q7M6Y3)
T2 sequence: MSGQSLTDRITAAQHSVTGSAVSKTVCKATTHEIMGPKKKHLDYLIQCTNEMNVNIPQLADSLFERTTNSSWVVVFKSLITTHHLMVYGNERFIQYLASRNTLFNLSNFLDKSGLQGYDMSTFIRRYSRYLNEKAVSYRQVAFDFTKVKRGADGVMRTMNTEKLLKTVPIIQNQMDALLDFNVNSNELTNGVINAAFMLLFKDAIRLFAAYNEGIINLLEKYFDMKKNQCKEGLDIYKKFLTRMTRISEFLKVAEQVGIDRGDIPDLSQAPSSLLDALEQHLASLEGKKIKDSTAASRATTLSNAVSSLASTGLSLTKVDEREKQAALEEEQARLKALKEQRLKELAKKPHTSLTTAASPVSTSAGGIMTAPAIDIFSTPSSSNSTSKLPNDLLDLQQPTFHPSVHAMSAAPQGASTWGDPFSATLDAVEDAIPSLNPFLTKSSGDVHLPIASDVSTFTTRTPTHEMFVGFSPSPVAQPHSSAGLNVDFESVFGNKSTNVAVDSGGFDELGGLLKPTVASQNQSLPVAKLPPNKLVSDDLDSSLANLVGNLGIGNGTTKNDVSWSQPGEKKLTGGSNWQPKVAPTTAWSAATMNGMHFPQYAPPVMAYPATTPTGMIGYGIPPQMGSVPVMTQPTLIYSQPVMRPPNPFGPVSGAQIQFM

[4] = target: receptor for advanced glycation end-products (mouse (endogenous in bEnd3)) (UniProt Q62151)

Substance | binding [1] | binding [2] | binding [3] | binding [4]
low-density lipoprotein receptor-related protein 1 (from UniProt Q91ZX7 20-4545) | binds | binds |  | 
syndapin-2 (from UniProt Q9WVE8 1-486) | no binding (tested: <20 dots per cell) |  | binds weakly | binds weakly
